{"sequences": {"note": "Sequences of proteins named here, by UniProt entry; tags and fusion partners are left off. Residues count along the entry.", "UniProt C4MBP1, 1-215": "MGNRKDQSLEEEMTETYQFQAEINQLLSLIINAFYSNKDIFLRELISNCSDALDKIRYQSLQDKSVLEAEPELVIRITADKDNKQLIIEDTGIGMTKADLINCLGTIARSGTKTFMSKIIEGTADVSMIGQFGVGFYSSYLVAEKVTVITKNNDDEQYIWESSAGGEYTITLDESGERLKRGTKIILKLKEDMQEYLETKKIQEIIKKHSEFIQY"}, "source": "paper PMC4429810", "about": "“Heat shock protein 90 inhibitors repurposed against Entamoeba histolytica” (Frontiers in Microbiology, 2015)", "molecular_target": "T1, EhHsp90 ATP-binding domain (Entamoeba histolytica, UniProt C4MBP1)", "T1 construct": "gene EHI_102270; cloned from genomic DNA in pET28a, E. coli BL21(DE3); His tag said to be cut by TEV; pocket residues C49, C103, R109", "experiment": "bis-ANS fluorescence displacement screen", "details": "read-out: Percent inhibition of fluorescence in protein screen at 2.5 μM (%)", "description": "bis-ANS fluorescence displacement screen on EhHsp90 ATP-binding domain"}
{"smiles": "CCCCCCCCCCCCCCCC[n+]1ccccc1", "note": "[Cetylpyridinium chloride]", "values": [{"measurement": "inhibition at 2.5 µM", "value": 95.9, "unit": "%"}]}
